Patent publication US8940516B2, “Method for the synthesis of chiral cyanohydrins via a hydroxynitrile lyase from brassicaceae” (Evocatal GmbH, priority 2006, dated 2015)

Assay: Stabilization of AtHNL at low pH (half life)

B1: AtHNL: hydroxynitrile lyase from Arabidopsis thaliana, polypeptide of the invention, SEQ ID NO: 1 (protein, listed as Arabidopsis thaliana)
chain: MERKHHFVLVHNAYHGAWIWYKLKPLLESAGHRVTAVELAASGIDPRPIQAVETVDEYSKPLIETLKSLPENEEVILVGFSFGGINIALAADIFPAKIKVLVFLNAFLPDTTHVPSHVLDKYMEMPGGLGDCEFSSHETRNGTMSLLKMGPKFMKARLYQNCPIEDYELAKMLHRQGSFFTEDLSKKEKFSEEGYGSVQRVYVMSSEDKAIPCDFIRWMIDNFNVSKVYEIDGGDHMVMLSKPQKLFDSLSAIATDYM
In the case of B1, the half life (pH of 5, 200 mg/ml of sorbitol) is reported as “more than 72 hours” and the half life (pH of 5, without additive) is reported as 3 h.
